Test results from PubChem BioAssay AID248 (DTP/NCI, 2004).
The list shows only some results of the screen, not a fair sample: it gathers tests that were run many times, whatever their T/C, doses with no T/C, and many T/C values between a quarter and a half above the control. Further doses and runs are listed elsewhere. T/C is the treated group as % of the vehicle group. Some doses have a count of surviving animals in place of a T/C: the source files T/C as zero there, which appears to mark a toxic dose or a test without result, not a measured value. Some survivor counts are full or nearly so, which does not show that the dose was tolerated: the source hardly ever lists a survival T/C far under the control, and the zero likely stands for such cases as well. Counts of survivors are from the toxicity check (mostly the fifth day) where no day follows; animals may have died later. Schedules are NCI's codes, read here as Q, the interval in days (D) or hours (H), X, the number of doses. Some schedule codes hold Z or #, which are not explained here. Where survival is the endpoint, this PubChem deposit counts one and a half times the control or more as active, and values a quarter to a half above the control carry no call in these data; other NCI protocols may use other cut-offs. Some doses were run more than once; the values are given in rising order. Some T/C values carry the count of animals alive at the toxicity check (mostly the fifth day); where none is given, no animal had died by that day.

System: L1210 leukemia ip in BDF1 mice, survival T/C
Assay: NCI In Vivo Anticancer Drug Screen. Data for tumor model L1210 Leukemia (intraperitoneal) in B6D2F1 (BDF1) mice
Conditions: T/C endpoint: mean survival time, higher T/C = longer survival
[1] = dose: 80.0 mg/kg/injection, schedule: Q01DX Z (ip), vehicle: saline
[2] = dose: 270.0 mg/kg/injection, schedule: Q01DX Z (ip), vehicle: saline

Nc1ccc(OC(=O)Oc2ccc(N)cc2)cc1
T/C (dose: 35.0 mg/kg/injection, schedule: Q01DX Z (ip), vehicle: other): 135 % of control
survivor count (dose: 50.0 mg/kg/injection, schedule: Q01DX015 (ip), vehicle: clinical formulation): 3 of 6
T/C (dose: 53.0 mg/kg/injection, schedule: Q01DX Z (ip), vehicle: other): 127 and 135 % of control
T/C (dose: 60.0 mg/kg/injection, schedule: Q#A X Z (ip), vehicle: saline): 128 % of control
T/C (dose: 80.0 mg/kg/injection, schedule: Q01DX013 (ip), vehicle: saline): 139 % of control
T/C (dose: 80.0 mg/kg/injection, schedule: Q01DX Z (ip), vehicle: carboxymethylcellulose (CMC)): 131 % of control
T/C [1]: 127 % of control
survivor count [1]: 6 of 6
T/C (dose: 90.0 mg/kg/injection, schedule: Q#A X Z (ip), vehicle: saline): 143 % of control
T/C (dose: 100.0 mg/kg/injection, schedule: Q01DX015 (ip), vehicle: other): 128 % of control
T/C (dose: 100.0 mg/kg/injection, schedule: Q01DX Z (ip), vehicle: saline): 142 % of control
T/C (dose: 100.0 mg/kg/injection, schedule: Q01DX Z (oral), vehicle: saline): 125 % of control
survivor count (dose: 100.0 mg/kg/injection, schedule: Q## X024 (ip), vehicle: saline): 9 of 10
T/C (dose: 100.0 mg/kg/injection, schedule: Q#A X Z (oral), vehicle: saline): 130 % of control
T/C (dose: 120.0 mg/kg/injection, schedule: Q01DX014 (sc), vehicle: saline): 136 % of control
T/C (dose: 120.0 mg/kg/injection, schedule: Q01DX Z (ip), vehicle: other): 137 % of control
T/C (dose: 150.0 mg/kg/injection, schedule: Q01DX017 (ip), vehicle: other): 136 % of control
T/C (dose: 178.0 mg/kg/injection, schedule: Q01DX009 (ip), vehicle: saline): 142 % of control
T/C (dose: 180.0 mg/kg/injection, schedule: Q01DX014 (oral), vehicle: saline): 128 % of control
T/C (dose: 180.0 mg/kg/injection, schedule: Q01DX014 (sc), vehicle: saline): 132 % of control
T/C (dose: 180.0 mg/kg/injection, schedule: Q01DX Z (ip), vehicle: other): 133 % of control
T/C (dose: 180.0 mg/kg/injection, schedule: Q01DX Z (ip), vehicle: saline): 131 and 132 % of control
T/C (dose: 200.0 mg/kg/injection, schedule: Q01DX009 (ip), vehicle: saline): 125 % of control
T/C (dose: 200.0 mg/kg/injection, schedule: Q01DX009 (oral), vehicle: saline): 129 % of control [8 of 10 alive]
T/C (dose: 200.0 mg/kg/injection, schedule: Q01DX Z (im), vehicle: saline): 146 % of control
T/C (dose: 200.0 mg/kg/injection, schedule: Q01DX Z (sc), vehicle: saline): 134 % of control
T/C (dose: 212.0 mg/kg/injection, schedule: Q01DX014 (oral), vehicle: saline): 126 % of control
T/C (dose: 212.0 mg/kg/injection, schedule: Q01DX016 (oral), vehicle: saline): 145 % of control
survivor count (dose: 212.0 mg/kg/injection, schedule: Q01DX Z (oral), vehicle: saline): 3 of 6
T/C (dose: 267.0 mg/kg/injection, schedule: Q01DX009 (ip), vehicle: saline): 143 % of control
T/C (dose: 267.0 mg/kg/injection, schedule: Q01DX009 (oral), vehicle: saline): 129 % of control
T/C (dose: 270.0 mg/kg/injection, schedule: Q01DX Z (ip), vehicle: other): 135 % of control
T/C [2]: 127 % of control
survivor count [2]: 3 of 6
T/C (dose: 270.0 mg/kg/injection, schedule: Q01DX Z (sc), vehicle: saline): 134 % of control
T/C (dose: 299.0 mg/kg/injection, schedule: Q01DX Z (ip), vehicle: carboxymethylcellulose (CMC)): 128 % of control [5 of 6 alive]
T/C (dose: 300.0 mg/kg/injection, schedule: Q01DX009 (ip), vehicle: other): 141 % of control
T/C (dose: 300.0 mg/kg/injection, schedule: Q01DX017 (ip), vehicle: other): 142 % of control
T/C (dose: 300.0 mg/kg/injection, schedule: Q01DX Z (ip), vehicle: carboxymethylcellulose (CMC)): 131 % of control
T/C (dose: 300.0 mg/kg/injection, schedule: Q#A X018 (ip), vehicle: other): 131 % of control
survivor count (dose: 320.0 mg/kg/injection, schedule: Q01DX Z (iv), vehicle: saline): 0 of 6
T/C (dose: 320.0 mg/kg/injection, schedule: Q01DX Z (oral), vehicle: saline): 141 % of control [4 of 6 alive]
T/C (dose: 400.0 mg/kg/injection, schedule: Q01DX005 (ip), vehicle: saline): 130 % of control [8 of 10 alive]
T/C (dose: 400.0 mg/kg/injection, schedule: Q01DX009 (ip), vehicle: saline, evaluated on day 30): 129 % of control [9 of 10 alive]
T/C (dose: 400.0 mg/kg/injection, schedule: Q01DX009 (ip), vehicle: saline, run until all animals had died): 135 % of control [9 of 10 alive]
survivor count (dose: 400.0 mg/kg/injection, schedule: Q01DX015 (ip), vehicle: clinical formulation): 5 of 6
survivor count (dose: 400.0 mg/kg/injection, schedule: Q01DX015 (ip), vehicle: other): 2 of 6
T/C (dose: 400.0 mg/kg/injection, schedule: Q01DX Z (im), vehicle: saline): 138 % of control
survivor count (dose: 400.0 mg/kg/injection, schedule: Q01DX Z (ip), vehicle: saline): 3 of 6
survivor count (dose: 400.0 mg/kg/injection, schedule: Q01DX Z (oral), vehicle: saline): 6 of 6
T/C (dose: 400.0 mg/kg/injection, schedule: Q01DX Z (sc), vehicle: saline): 146 % of control
T/C (dose: 400.0 mg/kg/injection, schedule: Q## X024 (ip), vehicle: saline): 126 % of control
T/C (dose: 400.0 mg/kg/injection, schedule: Q#A X Z (oral), vehicle: saline): 136 % of control [4 of 6 alive]
survivor count (dose: 405.0 mg/kg/injection, schedule: Q01DX Z (ip), vehicle: saline): 2 of 6
T/C (dose: 480.0 mg/kg/injection, schedule: Q01DX Z (oral), vehicle: saline): 148 % of control
T/C (dose: 500.0 mg/kg/injection, schedule: Q01DX001 (oral), vehicle: saline): 130 % of control [5 of 6 alive]
survivor count (dose: 600.0 mg/kg/injection, schedule: Q01DX001 (ip), vehicle: other): 5 of 8
survivor count (dose: 600.0 mg/kg/injection, schedule: Q01DX009 (ip), vehicle: saline): 4 of 10
T/C (dose: 600.0 mg/kg/injection, schedule: Q01DX009 (oral), vehicle: saline): 131 % of control
survivor count (dose: 606.0 mg/kg/injection, schedule: Q01DX Z (sc), vehicle: saline): 5 of 6
survivor count (dose: 640.0 mg/kg/injection, schedule: Q01DX Z (iv), vehicle: saline): 0 of 6
survivor count (dose: 800.0 mg/kg/injection, schedule: Q01DX001 (ip), vehicle: saline): 3 of 10
survivor count (dose: 800.0 mg/kg/injection, schedule: Q01DX005 (oral), vehicle: saline): 2 of 10
survivor count (dose: 800.0 mg/kg/injection, schedule: Q01DX Z (im), vehicle: saline): 1 of 6
survivor count (dose: 800.0 mg/kg/injection, schedule: Q01DX Z (oral), vehicle: saline): 3 of 6
survivor count (dose: 800.0 mg/kg/injection, schedule: Q01DX Z (sc), vehicle: saline): 1 of 6
survivor count (dose: 800.0 mg/kg/injection, schedule: Q## X003 (ip), vehicle: saline): 4 of 10
T/C (dose: 800.0 mg/kg/injection, schedule: Q## X008 (ip), vehicle: saline): 137 % of control
survivor count (dose: 800.0 mg/kg/injection, schedule: Q## X024 (oral), vehicle: saline): 4 of 9
survivor count (dose: 800.0 mg/kg/injection, schedule: Q#A X Z (oral), vehicle: saline): 3 of 6
survivor count (dose: 810.0 mg/kg/injection, schedule: Q03DX Z (ip), vehicle: saline): 1 of 6
survivor count (dose: 840.0 mg/kg/injection, schedule: Q07DX Z (ip), vehicle: saline): 1 of 6
T/C (dose: 900.0 mg/kg/injection, schedule: Q01DX009 (oral), vehicle: saline): 142 % of control
T/C (dose: 900.0 mg/kg/injection, schedule: Q## X024 (oral), vehicle: saline): 147 % of control
survivor count (dose: 1000.0 mg/kg/injection, schedule: Q01DX001 (oral), vehicle: saline): 3 of 6
survivor count (dose: 1080.0 mg/kg/injection, schedule: Q01DX Z (oral), vehicle: saline): 1 of 6
survivor count (dose: 1200.0 mg/kg/injection, schedule: Q01DX001 (ip), vehicle: other): 0 of 8
survivor count (dose: 1260.0 mg/kg/injection, schedule: Q07DX Z (ip), vehicle: saline): 0 of 6
survivor count (dose: 1600.0 mg/kg/injection, schedule: Q01DX008 (oral), vehicle: saline): 2 of 10
survivor count (dose: 1600.0 mg/kg/injection, schedule: Q01DX Z (im), vehicle: saline): 1 of 6
survivor count (dose: 1600.0 mg/kg/injection, schedule: Q01DX Z (oral), vehicle: saline): 0 of 6
survivor count (dose: 1600.0 mg/kg/injection, schedule: Q01DX Z (sc), vehicle: saline): 0 of 6
survivor count (dose: 1600.0 mg/kg/injection, schedule: Q## X024 (oral), vehicle: saline): 3 of 8
survivor count (dose: 1890.0 mg/kg/injection, schedule: Q07DX Z (ip), vehicle: saline): 0 of 6
survivor count (dose: 2000.0 mg/kg/injection, schedule: Q01DX001 (oral), vehicle: saline): 2 of 6
survivor count (dose: 2000.0 mg/kg/injection, schedule: Q03DX006 (oral), vehicle: saline): 3 of 6
survivor count (dose: 2000.0 mg/kg/injection, schedule: Q07DX003 (oral), vehicle: saline): 1 of 6
